# Results published in the supplement of paper PMC8728848.
# Some of the results follow.
# Key:
# Test in all cases: glycan array binding signal (z-score within array); higher = stronger binding
# Conditions in all cases: glycan notation: IUPAC condensed, linker removed
# [1] = target: GlcNAc(b1-3)Gal(b1-4)GlcNAc(b1-3)Gal(b1-4)GlcNAc(b1-3)GalNAc
# Summary of the method: (§1)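 The Consortium for Functional Glycomics database supplied 3228 glycan arrays, of which those lacking an available protein sequence were dropped. The binding signal, a within-array Z-score, was averaged across arrays of the same protein sequence and across linkers. Negative scores can be read as non-binding.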
# [2] = target: GlcNAc(b1-3)Gal(b1-4)GlcNAc(b1-3)GalNAc
# Summary of the method: as §1
# [3] = target: GlcNAc(b1-3)Gal(b1-4)GlcNAc(b1-3)[GlcNAc(b1-3)Gal(b1-4)GlcNAc(b1-3)]GalNAc
# Summary of the method: as §1
# [4] = target: GlcNAc(b1-3)Gal(b1-4)GlcNAc(b1-6)[Gal(b1-3)]GalNAc
# Summary of the method: as §1
# [5] = target: GlcNAc(b1-3)Gal(b1-4)GlcNAc(b1-6)[GlcNAc(b1-3)Gal(b1-3)]GalNAc
# Summary of the method: as §1
# [6] = target: GlcNAc(b1-3)Gal(b1-4)GlcNAc(b1-6)[GlcNAc(b1-3)]Gal(b1-4)GlcNAc
# Summary of the method: as §1
# GlcNAc(b1-3)GalNAc = target: GlcNAc(b1-3)GalNAc
# Summary of the method: as §1
# GlcNAc(b1-3)Man = target: GlcNAc(b1-3)Man
# Summary of the method: as §1
# [7] = target: GlcNAc(b1-3)[GlcNAc(b1-4)][GlcNAc(b1-6)]GlcNAc
# Summary of the method: as §1
# [8] = target: GlcNAc(b1-3)[GlcNAc(b1-6)]Gal(b1-4)GlcNAc
# Summary of the method: as §1
# [9] = target: GlcNAc(b1-3)[GlcNAc(b1-6)]GalNAc
# Summary of the method: as §1
# [10] = target: GlcNAc(b1-4)Gal(b1-4)GlcNAc
# Summary of the method: as §1
# GlcNAc(b1-4)GlcNAc = target: GlcNAc(b1-4)GlcNAc
# Summary of the method: as §1
# [11] = target: GlcNAc(b1-4)GlcNAc(b1-4)GlcNAc
# Summary of the method: as §1
# [12] = target: GlcNAc(b1-4)GlcNAc(b1-4)GlcNAc(b1-4)GlcNAc(b1-4)GlcNAc
# Summary of the method: as §1
# [13] = target: GlcNAc(b1-4)GlcNAc(b1-4)GlcNAc(b1-4)GlcNAc(b1-4)GlcNAc(b1-4)GlcNAc
# Summary of the method: as §1
# [14] = target: GlcNAc(b1-4)[GlcNAc(b1-6)]GalNAc
# Summary of the method: as §1
# [15] = target: GlcNAc(b1-6)Gal(b1-4)GlcNAc
# Summary of the method: as §1
# GlcNAc(b1-6)GalNAc = target: GlcNAc(b1-6)GalNAc
# Summary of the method: as §1
# [16] = target: GlcNAc6S(b1-3)Gal(b1-4)GlcNAc
# Summary of the method: as §1
# Kdn(a2-3)Gal(b1-3)GalNAc = target: Kdn(a2-3)Gal(b1-3)GalNAc
# Summary of the method: as §1
# Kdn(a2-3)Gal(b1-3)GlcNAc = target: Kdn(a2-3)Gal(b1-3)GlcNAc
# Summary of the method: as §1
# Kdn(a2-3)Gal(b1-4)Glc = target: Kdn(a2-3)Gal(b1-4)Glc
# Summary of the method: as §1
# Kdn(a2-3)Gal(b1-4)GlcNAc = target: Kdn(a2-3)Gal(b1-4)GlcNAc
# Summary of the method: as §1
# [17] = target: Kdn(a2-3)Gal(b1-4)[Fuc(a1-3)]GlcNAc
# Summary of the method: as §1
# Kdn(a2-6)Gal(b1-4)GlcNAc = target: Kdn(a2-6)Gal(b1-4)GlcNAc
# Summary of the method: as §1
# [18] = target: Man(a1-2)Man(a1-2)Man(a1-3)Man
# Summary of the method: as §1
# [19] = target: Man(a1-2)Man(a1-2)Man(a1-6)[Man(a1-3)]Man
# Summary of the method: as §1
# Man(a1-2)Man(a1-3)Man = target: Man(a1-2)Man(a1-3)Man
# Summary of the method: as §1
# [20] = target: Man(a1-2)Man(a1-3)[Man(a1-2)Man(a1-6)]Man
# Summary of the method: as §1
# [21] = target: Man(a1-2)Man(a1-3)[Man(a1-2)Man(a1-6)]Man(a1-6)[Man(a1-2)Man(a1-2)Man(a1-3)]Man
# Summary of the method: as §1
# [22] = target: Man(a1-2)Man(a1-3)[Man(a1-2)Man(a1-6)]Man(a1-6)[Man(a1-2)Man(a1-2)Man(a1-3)]Man(b1-4)GlcNAc(b1-4)GlcNAc
# Summary of the method: as §1
# [23] = target: Man(a1-2)Man(a1-3)[Man(a1-6)]Man(a1-6)[Man(a1-2)Man(a1-3)]Man(b1-4)GlcNAc(b1-4)GlcNAc
# Summary of the method: as §1
# [24] = target: Man(a1-2)Man(a1-6)[Man(a1-3)]Man(a1-6)[Man(a1-2)Man(a1-2)Man(a1-3)]Man
# Summary of the method: as §1
# [25] = target: Man(a1-2)Man(a1-6)[Man(a1-3)]Man(a1-6)[Man(a1-2)Man(a1-2)Man(a1-3)]Man(b1-4)GlcNAc(b1-4)GlcNAc
# Summary of the method: as §1
# Man(a1-3)[Man(a1-6)]Man = target: Man(a1-3)[Man(a1-6)]Man
# Summary of the method: as §1
# [26] = target: Man(a1-3)[Man(a1-6)]Man(a1-6)[Man(a1-2)Man(a1-3)]Man(b1-4)GlcNAc(b1-4)GlcNAc
# Summary of the method: as §1
# [27] = target: Man(a1-3)[Man(a1-6)]Man(a1-6)[Man(a1-3)]Man
# Summary of the method: as §1
# [28] = target: Man(a1-3)[Man(a1-6)]Man(a1-6)[Man(a1-3)]Man(b1-4)GlcNAc(b1-4)GlcNAc
# Summary of the method: as §1
# [29] = target: Man(a1-3)[Man(a1-6)]Man(b1-4)GlcNAc(b1-4)GlcNAc
# Summary of the method: as §1
# [30] = target: Man(a1-3)[Man(a1-6)]Man(b1-4)GlcNAc(b1-4)[Fuc(a1-6)]GlcNAc
# Summary of the method: as §1
# Man(a1-6)Man = target: Man(a1-6)Man
# Summary of the method: as §1
# Man(b1-4)GlcNAc = target: Man(b1-4)GlcNAc
# Summary of the method: as §1
# MurNAc(b1-4)GlcNAc = target: MurNAc(b1-4)GlcNAc
# Summary of the method: as §1
# Neu5Ac(a2-3)Gal = target: Neu5Ac(a2-3)Gal
# Summary of the method: as §1
binder,measurement,setting,value
SJCP3842 (Schistosoma japonicum) (protein) MFKMRIINLVNISTVLLLINLLQTKSRLVGKENGFMLTVSIYGAQLSDKMTSVPVSWTIDYEDPEKSAFKKLVTDSCDTFSEYVKSQIPKGSVDGQCTSHIFQRPGSGSGVSISLTLSFIYVDVTQPDTVALKTELEKHFANFVTIHSHKITQAQFRINQKAIVIPTGDKDAIDGSKWKIIAIIALVALAIVVIGGFIYICVK,glycan array binding signal (z-score),[1],-0.06
same,glycan array binding signal (z-score),[2],-0.076
same,glycan array binding signal (z-score),[3],0.294
same,glycan array binding signal (z-score),[4],-1.17
same,glycan array binding signal (z-score),[5],0.908
same,glycan array binding signal (z-score),[6],-0.613
same,glycan array binding signal (z-score),GlcNAc(b1-3)GalNAc,-0.58
same,glycan array binding signal (z-score),GlcNAc(b1-3)Man,-0.625
same,glycan array binding signal (z-score),[7],-1.18
same,glycan array binding signal (z-score),[8],1.35
same,glycan array binding signal (z-score),[9],-0.578
same,glycan array binding signal (z-score),[10],1.17
same,glycan array binding signal (z-score),GlcNAc(b1-4)GlcNAc,0.094
same,glycan array binding signal (z-score),[11],-0.713
same,glycan array binding signal (z-score),[12],0.984
same,glycan array binding signal (z-score),[13],-0.652
same,glycan array binding signal (z-score),[14],-1.62
same,glycan array binding signal (z-score),[15],-0.115
same,glycan array binding signal (z-score),GlcNAc(b1-6)GalNAc,-0.387
same,glycan array binding signal (z-score),[16],1.04
same,glycan array binding signal (z-score),Kdn(a2-3)Gal(b1-3)GalNAc,1.25
same,glycan array binding signal (z-score),Kdn(a2-3)Gal(b1-3)GlcNAc,0.249
same,glycan array binding signal (z-score),Kdn(a2-3)Gal(b1-4)Glc,-1.13
same,glycan array binding signal (z-score),Kdn(a2-3)Gal(b1-4)GlcNAc,0.69
same,glycan array binding signal (z-score),[17],0.333
same,glycan array binding signal (z-score),Kdn(a2-6)Gal(b1-4)GlcNAc,-1.02
same,glycan array binding signal (z-score),[18],1.35
same,glycan array binding signal (z-score),[19],-0.903
same,glycan array binding signal (z-score),Man(a1-2)Man(a1-3)Man,-1.03
same,glycan array binding signal (z-score),[20],-2.13
same,glycan array binding signal (z-score),[21],0.433
same,glycan array binding signal (z-score),[22],-0.987
same,glycan array binding signal (z-score),[23],-0.624
same,glycan array binding signal (z-score),[24],-2.45
same,glycan array binding signal (z-score),[25],-0.995
same,glycan array binding signal (z-score),Man(a1-3)[Man(a1-6)]Man,0.218
same,glycan array binding signal (z-score),[26],0.844
same,glycan array binding signal (z-score),[27],-1.02
same,glycan array binding signal (z-score),[28],-0.013
same,glycan array binding signal (z-score),[29],-0.51
same,glycan array binding signal (z-score),[30],1.76
same,glycan array binding signal (z-score),Man(a1-6)Man,-0.118
same,glycan array binding signal (z-score),Man(b1-4)GlcNAc,-0.285
same,glycan array binding signal (z-score),MurNAc(b1-4)GlcNAc,-0.214
same,glycan array binding signal (z-score),Neu5Ac(a2-3)Gal,0.069

# Quoted from the listing for reference:
binder,measurement,setting,value
SJCP3842 (Schistosoma japonicum) (protein) MFKMRIINLVNISTVLLLINLLQTKSRLVGKENGFMLTVSIYGAQLSDKMTSVPVSWTIDYEDPEKSAFKKLVTDSCDTFSEYVKSQIPKGSVDGQCTSHIFQRPGSGSGVSISLTLSFIYVDVTQPDTVALKTELEKHFANFVTIHSHKITQAQFRINQKAIVIPTGDKDAIDGSKWKIIAIIALVALAIVVIGGFIYICVK,glycan array binding signal (z-score),[2],-0.076
same,glycan array binding signal (z-score),[3],0.294
